Experimental data as given in patent publication US20260151494A1.
Positions count from the first letter of the chain named. Results are given in words; binding and its absence hold for the method and conditions named. Some entries that bind do so weakly or less than the wild type.

B1: CD71-binding FN3 domain of SEQ ID NO: 476 (designed binder)
chain: MLPAPKNLVVSRVTEDSARLSWTAPDAAFDSFFIGYLEPQPPGEAIHLQVPGSERSYDLTGLKPGTEYNVTIQGVKGGFPSIPLIAVFTT
B2: CD71-binding FN3 domain of SEQ ID NO: 472 (designed binder)
chain: B1 chain with H47E, Q49Y, I82L, I85V, V87T
B3: CD71-binding FN3 domain of SEQ ID NO: 516 (designed binder)
chain: B1 chain with H47S, Q49W, I82S, I85V, V87Y
B4: CD71-binding FN3 domain of SEQ ID NO: 465 (designed binder)
chain: B1 chain with H47D, Q49Y, I82E, I85W, V87D
B5: CD71-binding FN3 domain of SEQ ID NO: 496 (designed binder)
chain: B1 chain with H47I, Q49W, I82V, V87Q
B6: CD71-binding FN3 domain of SEQ ID NO: 529 (designed binder)
chain: B1 chain with H47D, Q49Y, I82L, I85Q, V87H
B7: CD71-binding FN3 domain of SEQ ID NO: 473 (designed binder)
chain: B1 chain with H47D, Q49W, I82L, I85S, V87S
B8: CD71-binding FN3 domain of SEQ ID NO: 447 (designed binder)
chain: B1 chain with H47Y, Q49Y, I82Y, I85T, V87Q
B9: CD71-binding FN3 domain of SEQ ID NO: 483 (designed binder)
chain: B1 chain with H47T, Q49V, I82D, I85V, V87S
B10: CD71-binding FN3 domain of SEQ ID NO: 478 (designed binder)
chain: B1 chain with Q49Y, I82V, V87K
B11: CD71-binding FN3 domain of SEQ ID NO: 400 (designed binder)
chain: B1 chain with Q49F, I82G, I85H, V87T
B12: CD71-binding FN3 domain of SEQ ID NO: 508 (designed binder)
chain: B1 chain with H47T, Q49S, I82E, V87I
B13: CD71-binding FN3 domain of SEQ ID NO: 373 (designed binder)
chain: B1 chain with H47S, Q49F, I82D, I85V, V87S

Target: human CD71 extracellular domain (CD71-ECD) (human) (UniProt P02786)
Assay: capture ELISA: 20 nM antigen on a Neutravidin plate, FN3 domain titrated, chemiluminescence (CL)

| binding | Binder |
| --- | --- |
| binds | B1 |

Target: cynomolgus monkey CD71 extracellular domain (CD71-ECD) (cynomolgus monkey)
Assay: as above

| binding | Binder |
| --- | --- |
| binds | B2 |
| binds | B3 |
| binds | B4 |
| binds | B5 |
| binds | B6 |
| binds | B7 |
| binds | B8 |
| binds | B9 |
| binds | B1 |
| binds | B10 |
| binds | B11 |
| binds | B12 |
| binds | B13 |
